No constants are given. Whether binding was seen depends on the method and setting. Binding seen in cells or lysates may run through a third protein. Some results given as binding are weak or reduced against the parent protein; the word gives no strength.

In the assay the target is T1, 14-3-3γ (YWHAG) (UniProt P61981).
T1 sequence: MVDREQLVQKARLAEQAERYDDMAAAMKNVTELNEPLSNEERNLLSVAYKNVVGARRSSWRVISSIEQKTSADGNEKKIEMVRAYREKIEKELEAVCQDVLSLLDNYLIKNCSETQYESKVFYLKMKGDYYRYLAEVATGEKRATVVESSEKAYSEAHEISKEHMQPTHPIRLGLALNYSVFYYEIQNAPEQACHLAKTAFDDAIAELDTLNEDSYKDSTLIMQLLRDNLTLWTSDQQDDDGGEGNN
The experiment in a line: co-IP; Co-IP of YWHAG with p-HSPB6 and p-Cofilin, with or without overexpression of HSPB6; no Co-IP method described (cell line, precipitating antibody and buffer not told).

B1: phosphorylated Heat shock protein family B [small] member 6 (p-HSPB6) (protein, UniProt O14558 1-160)
chain: MEIPVPVQPSWLRRASAPLPGLSAPGRLFDQRFGEGLLEAELAALCPTTLAPYYLRAPSVALPVAQVPTDPGHFSVLLDVKHFSPEEIAVKVVGEHVEVHARHEERPDEHGFVAREFHRRYRLPPGVDPAAVTSALSPEGVLSIQAAPASAQAPPPAAAK
modifications: phosphorylated (p-HSPB6); site not given
B1: the binding result is on record as “binds”.

(Values after publication PMC10876707.)
